Data taken from paper PMC10709431.

Amino acid sequences for entries named in this document (tags omitted). Residues count along the entry.
UniProt Q13131: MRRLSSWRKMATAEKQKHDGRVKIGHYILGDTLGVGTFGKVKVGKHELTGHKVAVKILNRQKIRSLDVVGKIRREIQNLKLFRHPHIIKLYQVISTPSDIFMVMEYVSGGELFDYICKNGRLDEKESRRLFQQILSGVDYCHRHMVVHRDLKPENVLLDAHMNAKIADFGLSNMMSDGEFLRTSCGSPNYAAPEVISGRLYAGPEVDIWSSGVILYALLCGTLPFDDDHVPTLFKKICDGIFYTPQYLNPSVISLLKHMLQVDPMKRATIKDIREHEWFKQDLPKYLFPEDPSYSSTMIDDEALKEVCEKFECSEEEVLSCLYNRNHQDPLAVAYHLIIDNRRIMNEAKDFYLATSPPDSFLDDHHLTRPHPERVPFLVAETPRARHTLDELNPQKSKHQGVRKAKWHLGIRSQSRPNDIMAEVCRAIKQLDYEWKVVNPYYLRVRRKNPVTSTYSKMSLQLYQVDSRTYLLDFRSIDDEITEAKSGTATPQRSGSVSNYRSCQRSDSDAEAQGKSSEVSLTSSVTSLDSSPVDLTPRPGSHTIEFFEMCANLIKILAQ
UniProt Q9UGJ0: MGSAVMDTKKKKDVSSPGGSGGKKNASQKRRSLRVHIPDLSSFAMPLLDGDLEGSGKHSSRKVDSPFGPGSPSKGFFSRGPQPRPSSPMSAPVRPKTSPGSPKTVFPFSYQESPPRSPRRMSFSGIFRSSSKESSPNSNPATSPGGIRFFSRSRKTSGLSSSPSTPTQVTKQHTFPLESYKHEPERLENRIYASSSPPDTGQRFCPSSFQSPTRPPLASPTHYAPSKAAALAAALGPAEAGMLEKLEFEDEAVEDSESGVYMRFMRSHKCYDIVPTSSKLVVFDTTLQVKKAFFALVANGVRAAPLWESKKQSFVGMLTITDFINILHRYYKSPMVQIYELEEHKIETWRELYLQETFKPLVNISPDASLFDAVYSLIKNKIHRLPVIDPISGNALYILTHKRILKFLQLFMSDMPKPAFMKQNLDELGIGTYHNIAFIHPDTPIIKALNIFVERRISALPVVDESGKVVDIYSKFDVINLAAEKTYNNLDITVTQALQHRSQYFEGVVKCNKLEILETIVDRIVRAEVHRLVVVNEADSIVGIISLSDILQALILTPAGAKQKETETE
UniProt Q9UJ70: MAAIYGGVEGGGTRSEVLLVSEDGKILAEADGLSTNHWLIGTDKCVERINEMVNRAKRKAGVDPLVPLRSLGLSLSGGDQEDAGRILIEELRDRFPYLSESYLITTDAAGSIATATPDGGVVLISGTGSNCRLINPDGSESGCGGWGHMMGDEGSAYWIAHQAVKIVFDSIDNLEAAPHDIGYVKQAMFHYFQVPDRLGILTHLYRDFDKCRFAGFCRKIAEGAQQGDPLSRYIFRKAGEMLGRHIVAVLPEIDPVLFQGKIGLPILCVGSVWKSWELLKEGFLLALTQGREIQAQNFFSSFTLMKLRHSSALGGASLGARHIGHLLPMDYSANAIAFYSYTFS
UniProt Q13547: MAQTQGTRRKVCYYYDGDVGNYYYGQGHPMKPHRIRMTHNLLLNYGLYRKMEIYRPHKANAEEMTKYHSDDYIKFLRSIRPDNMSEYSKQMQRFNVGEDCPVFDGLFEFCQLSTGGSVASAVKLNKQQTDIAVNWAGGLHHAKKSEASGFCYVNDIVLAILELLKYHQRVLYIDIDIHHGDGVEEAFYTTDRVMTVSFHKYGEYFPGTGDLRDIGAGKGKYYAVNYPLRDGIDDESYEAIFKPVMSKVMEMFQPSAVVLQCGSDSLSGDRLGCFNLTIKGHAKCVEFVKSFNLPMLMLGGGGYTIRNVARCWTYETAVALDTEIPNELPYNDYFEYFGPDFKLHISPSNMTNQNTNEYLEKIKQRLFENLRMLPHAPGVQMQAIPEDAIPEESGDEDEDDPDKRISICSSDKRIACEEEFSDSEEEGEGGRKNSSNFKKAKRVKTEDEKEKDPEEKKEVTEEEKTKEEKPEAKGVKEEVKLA
UniProt P27986: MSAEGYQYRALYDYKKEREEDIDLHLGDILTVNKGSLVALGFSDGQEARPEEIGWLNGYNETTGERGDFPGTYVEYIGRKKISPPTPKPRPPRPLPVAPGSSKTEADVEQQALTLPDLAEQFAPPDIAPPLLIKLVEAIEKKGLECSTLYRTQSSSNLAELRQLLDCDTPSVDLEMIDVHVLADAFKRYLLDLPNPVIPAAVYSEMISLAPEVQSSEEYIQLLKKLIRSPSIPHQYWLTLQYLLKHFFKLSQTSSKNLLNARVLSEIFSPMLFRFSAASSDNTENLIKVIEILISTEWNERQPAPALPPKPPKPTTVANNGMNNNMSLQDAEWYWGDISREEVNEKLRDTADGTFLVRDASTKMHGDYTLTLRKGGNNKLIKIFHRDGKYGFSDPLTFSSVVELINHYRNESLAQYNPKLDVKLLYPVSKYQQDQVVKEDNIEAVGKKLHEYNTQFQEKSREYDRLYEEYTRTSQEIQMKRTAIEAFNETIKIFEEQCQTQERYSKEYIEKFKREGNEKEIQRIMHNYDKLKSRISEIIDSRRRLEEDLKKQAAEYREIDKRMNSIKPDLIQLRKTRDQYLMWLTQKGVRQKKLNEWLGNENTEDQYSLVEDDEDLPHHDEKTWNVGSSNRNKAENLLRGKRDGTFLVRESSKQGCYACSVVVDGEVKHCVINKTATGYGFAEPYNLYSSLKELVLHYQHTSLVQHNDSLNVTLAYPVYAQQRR
UniProt P55854, residues 1-92: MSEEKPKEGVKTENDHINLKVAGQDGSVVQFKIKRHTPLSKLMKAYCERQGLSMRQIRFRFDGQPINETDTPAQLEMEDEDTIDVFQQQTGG
UniProt Q93009: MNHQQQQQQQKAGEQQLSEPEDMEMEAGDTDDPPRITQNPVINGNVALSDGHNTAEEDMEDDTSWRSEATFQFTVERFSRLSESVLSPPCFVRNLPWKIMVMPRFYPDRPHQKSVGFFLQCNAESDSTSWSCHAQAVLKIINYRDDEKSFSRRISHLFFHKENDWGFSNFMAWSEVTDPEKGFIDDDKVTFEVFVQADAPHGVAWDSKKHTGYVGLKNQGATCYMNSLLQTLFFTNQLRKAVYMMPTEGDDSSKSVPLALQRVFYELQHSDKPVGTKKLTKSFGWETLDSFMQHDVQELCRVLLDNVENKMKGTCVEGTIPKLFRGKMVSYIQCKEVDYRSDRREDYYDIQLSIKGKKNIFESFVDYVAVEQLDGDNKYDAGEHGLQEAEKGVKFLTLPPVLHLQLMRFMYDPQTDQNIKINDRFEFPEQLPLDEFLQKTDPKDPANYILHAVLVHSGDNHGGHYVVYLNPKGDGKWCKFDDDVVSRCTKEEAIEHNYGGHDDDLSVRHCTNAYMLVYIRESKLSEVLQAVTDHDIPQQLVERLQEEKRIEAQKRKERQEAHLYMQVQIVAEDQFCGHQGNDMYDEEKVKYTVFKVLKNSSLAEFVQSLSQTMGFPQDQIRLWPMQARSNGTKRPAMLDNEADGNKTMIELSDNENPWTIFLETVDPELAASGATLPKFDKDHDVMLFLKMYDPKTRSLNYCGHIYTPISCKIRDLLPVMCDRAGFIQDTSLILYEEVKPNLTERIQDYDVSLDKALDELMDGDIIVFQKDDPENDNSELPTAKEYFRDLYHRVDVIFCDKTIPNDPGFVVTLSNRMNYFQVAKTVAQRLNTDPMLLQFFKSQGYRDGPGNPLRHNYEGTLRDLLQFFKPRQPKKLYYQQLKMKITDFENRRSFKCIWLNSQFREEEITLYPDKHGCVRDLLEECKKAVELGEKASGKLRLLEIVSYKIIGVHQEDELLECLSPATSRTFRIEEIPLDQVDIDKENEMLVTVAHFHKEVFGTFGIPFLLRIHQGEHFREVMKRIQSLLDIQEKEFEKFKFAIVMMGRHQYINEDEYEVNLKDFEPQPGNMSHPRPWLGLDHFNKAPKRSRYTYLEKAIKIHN
UniProt Q06210: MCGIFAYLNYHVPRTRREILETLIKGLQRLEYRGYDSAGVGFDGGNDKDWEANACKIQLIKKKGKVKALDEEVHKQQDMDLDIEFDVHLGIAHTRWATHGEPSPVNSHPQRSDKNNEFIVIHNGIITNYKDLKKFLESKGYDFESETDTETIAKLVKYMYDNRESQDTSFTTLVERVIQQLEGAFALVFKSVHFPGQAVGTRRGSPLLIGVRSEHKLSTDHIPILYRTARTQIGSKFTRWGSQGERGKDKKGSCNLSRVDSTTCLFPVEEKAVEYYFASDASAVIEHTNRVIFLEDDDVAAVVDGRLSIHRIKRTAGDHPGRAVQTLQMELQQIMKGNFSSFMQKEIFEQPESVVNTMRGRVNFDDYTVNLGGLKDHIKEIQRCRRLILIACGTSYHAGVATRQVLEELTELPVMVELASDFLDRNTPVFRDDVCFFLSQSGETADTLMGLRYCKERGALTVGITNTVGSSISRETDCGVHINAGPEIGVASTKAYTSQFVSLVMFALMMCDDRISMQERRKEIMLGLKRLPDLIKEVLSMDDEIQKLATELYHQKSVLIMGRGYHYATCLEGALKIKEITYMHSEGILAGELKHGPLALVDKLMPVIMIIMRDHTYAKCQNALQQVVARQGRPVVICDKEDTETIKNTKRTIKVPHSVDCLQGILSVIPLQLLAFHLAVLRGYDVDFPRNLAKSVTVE

B1: HOMER1 (protein, UniProt Q86YM7 1-354)
chain: MGEQPIFSTRAHVFQIDPNTKKNWVPTSKHAVTVSYFYDSTRNVYRIISLDGSKAIINSTITPNMTFTKTSQKFGQWADSRANTVYGLGFSSEHHLSKFAEKFQEFKEAARLAKEKSQEKMELTSTPSQESAGGDLQSPLTPESINGTDDERTPDVTQNSEPRAEPTQNALPFSHSSAISKHWEAELATLKGNNAKLTAALLESTANVKQWKQQLAAYQEEAERLHKRVTELECVSSQANAVHTHKTELNQTIQELEETLKLKEEEIERLKQEIDNARELQEQRDSLTQKLQEVEIRNKDLEGQLSDLEQRLEKSQNEQEAFRNNLKTLLEILDGKIFELTELRDNLAKLLECS
B2: CAB39 (protein, UniProt Q9Y376 1-341)
chain: MPFPFGKSHKSPADIVKNLKESMAVLEKQDISDKKAEKATEEVSKNLVAMKEILYGTNEKEPQTEAVAQLAQELYNSGLLSTLVADLQLIDFEGKKDVAQIFNNILRRQIGTRTPTVEYICTQQNILFMLLKGYESPEIALNCGIMLRECIRHEPLAKIILWSEQFYDFFRYVEMSTFDIASDAFATFKDLLTRHKLLSAEFLEQHYDRFFSEYEKLLHSENYVTKRQSLKLLGELLLDRHNFTIMTKYISKPENLKLMMNLLRDKSRNIQFEAFHVFKVFVANPNKTQPILDILLKNQAKLIEFLSKFQNDRTEDEQFNDEKTYLVKQIRDLKRPAQQEA
B3: glucosamine-phosphate N-acetyltransferase 1 (GNPNAT1) (enzyme, UniProt Q96EK6 1-184)
chain: MKPDETPMFDPSLLKEVDWSQNTATFSPAISPTHPGEGLVLRPLCTADLNRGFFKVLGQLTETGVVSPEQFMKSFEHMKKSGDYYVTVVEDVTLGQIVATATLIIEHKFIHSCAKRGRVEDVVVSDECRGKQLGKLLLSTLTLLSKKLNCYKITLECLPQNVGFYKKFGYTVSEENYMCRRFLK
B4: P73 (protein, UniProt O15350 1-636)
chain: MAQSTATSPDGGTTFEHLWSSLEPDSTYFDLPQSSRGNNEVVGGTDSSMDVFHLEGMTTSVMAQFNLLSSTMDQMSSRAASASPYTPEHAASVPTHSPYAQPSSTFDTMSPAPVIPSNTDYPGPHHFEVTFQQSSTAKSATWTYSPLLKKLYCQIAKTCPIQIKVSTPPPPGTAIRAMPVYKKAEHVTDVVKRCPNHELGRDFNEGQSAPASHLIRVEGNNLSQYVDDPVTGRQSVVVPYEPPQVGTEFTTILYNFMCNSSCVGGMNRRPILIIITLEMRDGQVLGRRSFEGRICACPGRDRKADEDHYREQQALNESSAKNGAASKRAFKQSPPAVPALGAGVKKRRHGDEDTYYLQVRGRENFEILMKLKESLELMELVPQPLVDSYRQQQQLLQRPSHLQPPSYGPVLSPMNKVHGGMNKLPSVNQLVGQPPPHSSAATPNLGPVGPGMLNNHGHAVPANGEMSSSHSAQSMVSGSHCTPPPPYHADPSLVSFLTGLGCPNCIEYFTSQGLQSIYHLQNLTIEDLGALKIPEQYRMTIWRGLQDLKQGHDYSTAQQLLRSSNAATISIGGSGELQRQRVMEAVHFRVRHTITIPNRGGPGGGPDEWADFGFDLPDCKARKQPIKEEFTEAEIH
B5: hexokinase (HK) (enzyme, UniProt P19367 1-917)
chain: MIAAQLLAYYFTELKDDQVKKIDKYLYAMRLSDETLIDIMTRFRKEMKNGLSRDFNPTATVKMLPTFVRSIPDGSEKGDFIALDLGGSSFRILRVQVNHEKNQNVHMESEVYDTPENIVHGSGSQLFDHVAECLGDFMEKRKIKDKKLPVGFTFSFPCQQSKIDEAILITWTKRFKASGVEGADVVKLLNKAIKKRGDYDANIVAVVNDTVGTMMTCGYDDQHCEVGLIIGTGTNACYMEELRHIDLVEGDEGRMCINTEWGAFGDDGSLEDIRTEFDREIDRGSLNPGKQLFEKMVSGMYLGELVRLILVKMAKEGLLFEGRITPELLTRGKFNTSDVSAIEKNKEGLHNAKEILTRLGVEPSDDDCVSVQHVCTIVSFRSANLVAATLGAILNRLRDNKGTPRLRTTVGVDGSLYKTHPQYSRRFHKTLRRLVPDSDVRFLLSESGSGKGAAMVTAVAYRLAEQHRQIEETLAHFHLTKDMLLEVKKRMRAEMELGLRKQTHNNAVVKMLPSFVRRTPDGTENGDFLALDLGGTNFRVLLVKIRSGKKRTVEMHNKIYAIPIEIMQGTGEELFDHIVSCISDFLDYMGIKGPRMPLGFTFSFPCQQTSLDAGILITWTKGFKATDCVGHDVVTLLRDAIKRREEFDLDVVAVVNDTVGTMMTCAYEEPTCEVGLIVGTGSNACYMEEMKNVEMVEGDQGQMCINMEWGAFGDNGCLDDIRTHYDRLVDEYSLNAGKQRYEKMISGMYLGEIVRNILIDFTKKGFLFRGQISETLKTRGIFETKFLSQIESDRLALLQVRAILQQLGLNSTCDDSILVKTVCGVVSRRAAQLCGAGMAAVVDKIRENRGLDRLNVTVGVDGTLYKLHPHFSRIMHQTVKELSPKCNVSFLLSEDGSGKGAALITAVGVRLRTEASS

target: AMPKα1 bait of the TurboID proximity labeling assay (UniProt Q13131); assay: proximity labelling; TurboID with AMPKα1; 100 μM biotin for 10 min at 37 °C, biotin-labeled proteins purified on streptavidin magnetic beads, western blot and mass spectrometry

Which binding does the source give for AMPKγ2 (from UniProt Q9UGJ0 1-569) here?
Its binding is “binds”.

Which binding does the source give for “GNK (N-acetyl-D-glucosamine kinase) (from UniProt Q9UJ70 1-344) (enzyme)” here?
The binding was “no binding”.

For HDAC1 (from UniProt Q13547 1-482), which binding is on record?
Its binding is “binds”.

For PIK3R1 (from UniProt P27986 1-724), which binding is on record?
Its binding is “binds”.

For SUMO3 (from UniProt P55854 1-92), which binding is on record?
The binding was “binds”.

Which binding does the source give for USP7 (from UniProt Q93009 1-1102) here?
Its binding is “binds”.

“glutamine fructose-6-phosphate aminotransferase 1 (GFAT1) (from UniProt Q06210 1-699) (enzyme)” was tested. Which binding did it give?
The binding was “binds”.

Which binding does the source give for B1 here?
Its binding is “binds”.

For B2, which binding is on record?
Its binding is “binds”.

For B3, which binding is on record?
Its binding is “binds”.

For B4, which binding is on record?
The binding was “binds”.

With B5 as the molecule, how does the binding read?
The binding was “no binding”.

Results are given in words; binding and its absence hold for the method and conditions named. In cells and extracts the contact can be indirect. A yes stands for co-enrichment or nearness to the bait. Other partners may have been found. A no says only that the protein was not detected with the bait. Where a sequence is shown, tags or fusion partners need not be part of it.
